The text below walks through data of patent US20160024210A1 (AstraZeneca / MedImmune, published 2016).

The target in assay [1] is T1, human H7CR (B7-H7 counter-receptor) (human, UniProt Q96BF3 23-282).
T1 construct: Used for H7CR on CHO.hH7CR transfectants, human T cells and tonsil tissue; also called B7-H7CR; CD28H
T1 sequence: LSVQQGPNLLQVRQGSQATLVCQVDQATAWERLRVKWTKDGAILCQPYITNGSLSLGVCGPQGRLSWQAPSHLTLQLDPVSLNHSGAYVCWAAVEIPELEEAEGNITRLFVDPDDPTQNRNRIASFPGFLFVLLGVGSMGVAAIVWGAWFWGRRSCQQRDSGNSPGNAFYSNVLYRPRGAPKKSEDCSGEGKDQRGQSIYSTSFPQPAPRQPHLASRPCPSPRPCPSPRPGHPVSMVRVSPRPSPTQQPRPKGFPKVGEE
The assay can be described thus: flow cytometry, 10 µg/ml B7-H7mIg on H7CR CHO transfectants, anti-mouse Ig secondary antibody, with Control Ig or an H7CR mAb added [A)-(D].

Assay [2] addresses T1, human H7CR (B7-H7 counter-receptor). The experiment in a line: flow cytometry, 10 µg/ml B7-H7mIg on H7CR CHO transfectants. Background: A flow cytometer gives signals particle by particle.

Results are given in words; binding and its absence hold for the method and conditions named. Some entries that bind do so weakly or less than the wild type. Where a sequence is shown, tags or fusion partners need not be part of it.

B1: B7-H7-murine IgG2a fusion protein (Fc fusion, not shown: a dimerising Fc or GST)
chain: IFPLAFFIYVPMNEQIVIGRLDEDIILPSSFERGSEVVIHWKYQDSYKVHSYYKGSDHLESQDPRYANRTSLFYNEIQNGNASLFFRRVSLLDEGIYTCYVGTAIQVITNKVVLKVGVFLTPVMKYEKRNTNSFLICSVLSVYPRPIITWKMDNTPISENNMEETGSLDSFSINSPLNITGSNSSYECTIENSLLKQTWTGRWTMKDGLHKMQSEHVSLSCQPVNDYFSPNQDFKVTWSRMKSGTFSVLAYYLSSSQNTIINESRFSWNKELINQSDFSMNLMDLNLSDSGEYLCNISSDEYTLLTIHTVHVEPSQETASHN
As for B1, the binding result in assay [1] and in assay [2] was “binds” in each case.
